PubChem BioAssay AID1259405 | NCATS – 2018
Shown is one part, drawn at random, of about 50,000 reagents tested. In the full data, about 4,000 (8%) were called active. 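Mouse siRNA library applied to hamster cells; one well for each siRNA.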 Unmarked entries are inactive. Reagents against one gene are numbered here. Not all columns of the deposit are shown.

Test: 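Knock-downs that lift recombinant protein yield in hamster ovary cells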 (primary screen)
Cells: Chinese hamster CHO-K1 ovary cells with stable secreted eGFP expression
Reagent: single siRNA against mouse genes, 0.8 pmol siRNA per well (2 µl of 400 nM stock)
Duration: 3 days
Read-out: 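Percent of the per-plate non-targeting control median for intracellular GFP per well by laser scanning cytometry and for cell viability by ATP luminescence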
Scale: GFP, % of control: higher = more GFP per well, higher productivity
Call rule: 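Called active when intracellular GFP, relative to negative control, is at or above 120%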

GFP, % of control, by target and reagent
Ing1 (GeneID 26356): #1 8.26; #2 50.5; #3 84.2
Vmn1r44 (GeneID 113854): #1 48; #2 88.5; #3 72
Cdv3 (GeneID 321022): #1 78.5; #2 68.1; #3 88.1
Nprl3 (GeneID 17168): #1 62.9; #2 125 (active); #3 103
Mbip (GeneID 217588): #1 66.3; #2 52.7; #3 98
Nap1l5 (GeneID 58243): #1 124 (active); #2 76.4; #3 70.2
Nmd3 (GeneID 97112): #1 89.9; #2 91.9; #3 81.3
Fcrlb (GeneID 435653): #1 32.4; #2 74.8; #3 38.3
Plrg1 (GeneID 53317): #1 95.8; #2 82.6; #3 66.9
Plekha7 (GeneID 233765): #1 111; #2 90.9; #3 103
Gm10283 (GeneID 330776): #1 55.1; #2 75.1; #3 102
Eif3l (GeneID 223691): #1 80.3; #2 81.1; #3 168 (active)
Matcap2 (GeneID 68283): #1 55.9; #2 79.4; #3 62.7
Itga4 (GeneID 16401): #1 66; #2 120
Itgad (GeneID 381924): #1 79.2; #2 146 (active); #3 114
Glod5 (GeneID 69824): #1 80.9; #2 96; #3 105
Ccr1 (GeneID 12768): #1 83.3; #2 85.1; #3 98.2
Cox17 (GeneID 12856): #1 124 (active); #2 117; #3 65.2
Nme5 (GeneID 75533): #1 90.3
Cxcl2 (GeneID 20310): #1 70.4; #2 110; #3 67.7
Fkbp2 (GeneID 14227): #1 50.2; #2 58.3; #3 36.6
Lcor (GeneID 212391): #1 51.4; #2 88.3; #3 57.9
Itsn1 (GeneID 16443): #1 71.9; #2 85.3; #3 29.8
H2-Oa (GeneID 15001): #1 39.1; #2 86.2; #3 70.8
Elovl2 (GeneID 54326): #1 92.6; #2 68.7; #3 108
Sec22a (GeneID 317717): #1 110; #2 82.7; #3 72.8
Espn (GeneID 56226): #1 43.5; #2 85.8
Yipf1 (GeneID 230584): #1 61.5; #2 113; #3 181 (active)
2410018L13Rik (GeneID 69732): #1 149 (active); #2 48; #3 88.5
Kap (GeneID 16483): #1 84.6; #2 104; #3 84.4

Active calls, among the entries above:
GFP, % of control, by target and reagent
Nprl3 (GeneID 17168): #2 125 (active)
Nap1l5 (GeneID 58243): #1 124 (active)
Eif3l (GeneID 223691): #3 168 (active)
Itgad (GeneID 381924): #2 146 (active)
Cox17 (GeneID 12856): #1 124 (active)
Yipf1 (GeneID 230584): #3 181 (active)
2410018L13Rik (GeneID 69732): #1 149 (active)
